From patent publication US7816558B2, “Triarylcarboxylic acid derivative” (Astellas Pharma Inc., priority 2005, dated 2010)
Where a name gives a salt, the structure may show the parent alone. Some of these results come from one statement about several compounds together.

Sequences of proteins named here, by UniProt entry; tags and fusion partners are left off.
UniProt P80457, whole entry: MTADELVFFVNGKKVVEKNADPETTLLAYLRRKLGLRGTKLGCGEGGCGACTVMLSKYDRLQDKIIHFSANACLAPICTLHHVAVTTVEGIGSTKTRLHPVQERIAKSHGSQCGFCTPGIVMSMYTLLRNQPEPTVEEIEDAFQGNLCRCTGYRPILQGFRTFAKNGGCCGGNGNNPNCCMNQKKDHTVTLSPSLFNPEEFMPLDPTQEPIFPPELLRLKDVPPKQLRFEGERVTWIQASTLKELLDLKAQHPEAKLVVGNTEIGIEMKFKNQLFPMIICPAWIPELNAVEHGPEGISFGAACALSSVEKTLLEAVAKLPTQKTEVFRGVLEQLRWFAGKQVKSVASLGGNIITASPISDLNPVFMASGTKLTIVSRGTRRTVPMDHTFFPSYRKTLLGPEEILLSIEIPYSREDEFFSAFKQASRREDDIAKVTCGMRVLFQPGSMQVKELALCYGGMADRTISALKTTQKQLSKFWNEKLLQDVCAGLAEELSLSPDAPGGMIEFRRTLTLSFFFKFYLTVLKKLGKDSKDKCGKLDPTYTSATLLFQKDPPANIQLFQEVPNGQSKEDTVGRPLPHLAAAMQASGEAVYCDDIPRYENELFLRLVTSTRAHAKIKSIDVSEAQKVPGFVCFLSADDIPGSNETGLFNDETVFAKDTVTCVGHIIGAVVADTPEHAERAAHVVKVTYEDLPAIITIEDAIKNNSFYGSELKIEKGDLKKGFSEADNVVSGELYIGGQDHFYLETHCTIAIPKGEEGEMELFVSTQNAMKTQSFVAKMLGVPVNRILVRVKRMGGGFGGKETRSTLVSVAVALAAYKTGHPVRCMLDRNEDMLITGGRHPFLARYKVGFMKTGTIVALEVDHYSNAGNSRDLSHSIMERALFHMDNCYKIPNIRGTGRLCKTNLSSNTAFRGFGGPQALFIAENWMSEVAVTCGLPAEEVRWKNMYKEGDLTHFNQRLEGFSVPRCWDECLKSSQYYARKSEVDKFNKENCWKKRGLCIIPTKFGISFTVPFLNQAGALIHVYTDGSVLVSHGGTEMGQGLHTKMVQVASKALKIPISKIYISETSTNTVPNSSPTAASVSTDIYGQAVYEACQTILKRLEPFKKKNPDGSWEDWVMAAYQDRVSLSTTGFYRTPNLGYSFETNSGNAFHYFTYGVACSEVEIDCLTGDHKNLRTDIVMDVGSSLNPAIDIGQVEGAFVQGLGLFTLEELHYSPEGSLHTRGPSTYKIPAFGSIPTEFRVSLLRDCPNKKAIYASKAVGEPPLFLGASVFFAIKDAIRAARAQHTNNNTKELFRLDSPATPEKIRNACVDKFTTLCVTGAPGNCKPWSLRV

biological target: T1, xanthine oxidase (derived from butter milk, by Sigma) (Bos taurus, UniProt P80457); assay: Xanthine oxidase inhibiting activity; assay type: biochemical; details: pterin 5 μM as substrate, isoxanthopterin light emission, room temperature; read-out: IC50 (concentration of the test compound for 50% inhibition)
T1 construct: xanthine oxidase (derived from butter milk, by Sigma); purchased Sigma; host or cells: butter milk (natural source)
Procedure: A test compound was dissolved in DMSO (by Nacalai) to have a concentration of 10 mM, and then just before use, its concentration was adjusted to a desired one.
The xanthine oxidase inhibitory activity of the compound of the present invention was evaluated according to a partly modified method of a method described in a reference “Free Radic. Biol. Med. 6, 607-615, 1992”. Concretely, xanthine oxidase (derived from butter milk, by Sigma) was mixed with 50 mM phosphate buffer to be 0.03 units/ml, and applied to a 96-well plate in an amount of […]. The test compound diluted to have a final concentration was added to the plate in an amount of 2 μl/well, and processed at room temperature for 20 minutes. Pterin (by Sigma) was added to it to have a final concentration of 5 μM in an amount of 50 μl/well, and reacted at room temperature for 10 minutes. Under a condition of excitation at 345 nm and emission at […] (pterin is oxidized by xanthine oxidase to give isoxanthopterin, and under the condition it emits light), the sample was analyzed using a microplate reader sapphire (by Tacan).
The light emission by isoxanthopterin in the presence or absence of xanthine oxidase was defined as 0% inhibition and 100% inhibition, respectively, and the concentration (IC50) of the test compound for 50% inhibition was computed.

SMILES	IC50 [nM]
N#Cc1cc(-c2cc(C(=O)[O-])ccn2)ccc1-c1ccccc1.[Na+] [Example 1, sodium 2-(2-cyanobiphenyl-4-yl)isonicotinate]	≤ 10
N#Cc1cc(-c2cc(C(=O)O)ccn2)ccc1-n1cccn1 [Example 2, sodium 2-[3-cyano-4-(1H-pyrazol-1-yl)phenyl]isonicotinate]	≤ 10
COc1ccc(-c2ccc(-c3cc(C(=O)O)ccn3)cc2C#N)cc1C#N [Example 3, 2-(2,3′-dicyano-4′-methoxybiphenyl-4-yl)isonicotinic acid]	≤ 10
N#Cc1cc(-c2cc(C(=O)O)ccn2)ccc1-c1cc[nH]c1 [Example 4, 2-[3-cyano-4-(1H-pyrrol-3-yl)phenyl]isonicotinic acid]	≤ 10
N#Cc1cc(-c2cc(C(=O)O)ccn2)ccc1-n1cccc1 [Example 5, 2-[3-cyano-4-(1H-pyrrol-1-yl)phenyl]isonicotinic acid]	≤ 10
N#Cc1cc(-c2ccc(C(=O)O)s2)ccc1-c1cccc(N)c1 [Example 7, 5-(3′-amino-2-cyanobiphenyl-4-yl)thiophene-2-carboxylic acid]	≤ 10
N#Cc1cc(-c2ccc(C(=O)O)s2)ccc1-c1ccc(N)c(F)c1 [Example 8, 5-(4′-amino-2-cyano-3′-fluorobiphenyl-4-yl)thiophene-2-carboxylic acid]	≤ 10
N#Cc1cc(-c2cc(C(=O)O)ccn2)ccc1-c1cccnc1 [Example 9, 2-(3-cyano-4-pyridin-3-ylphenyl)isonicotinic acid 0.3 hydrochloride]	≤ 10
COc1ccc(-c2ccc(-c3cc(C(=O)O)ccn3)cc2C#N)cc1 [Example 12, 2-(2-cyano-4′-methoxybiphenyl-4-yl)isonicotinic acid]	≤ 10
N#Cc1cc(-c2cc(C(=O)O)ccn2)ccc1-c1ccc(Cl)cc1 [Example 13, 2-(4′-chloro-2-cyanobiphenyl-4-yl)isonicotinic acid]	≤ 10
N#Cc1cc(-c2cc(C(=O)O)ccn2)ccc1-c1ccc(C(F)(F)F)cc1 [Example 14]	≤ 10
N#Cc1cc(-c2cc(C(=O)O)ccn2)ccc1-c1cccs1 [Example 17]	≤ 10
N#Cc1cc(-c2cc(C(=O)O)ccn2)ccc1-c1ccoc1 [Example 19]	≤ 10
N#Cc1cc(-c2cc(C(=O)O)ccn2)ccc1-c1ccc(C(=O)O)cc1 [Example 21]	≤ 10
N#Cc1cc(-c2cc(C(=O)O)ccn2)ccc1-c1ccc(Oc2ccccc2)cc1 [Example 43]	≤ 10
N#Cc1cc(-c2cc(C(=O)O)ccn2)ccc1-c1ccc2c(c1)OCO2 [Example 46]	≤ 10
COc1c(C)cc(-c2ccc(-c3cc(C(=O)O)ccn3)cc2C#N)cc1C [Example 49]	≤ 10
N#Cc1cc(-c2cc(C(=O)O)ccn2)ccc1-n1ncc2ccccc21 [Example 58]	≤ 10
N#Cc1cc(-c2cc(C(=O)O)ccn2)ccc1-n1c2ccccc2c2ccccc21 [Example 63]	≤ 10

SMILES	IC50 [nM]
N#Cc1cc(-c2ccc(C(=O)O)s2)ccc1-c1ccccc1 [Example 68, 5-(2-cyanobiphenyl-4-yl)thiophene-2-carboxylic acid]	≤ 10
N#Cc1cc(-c2ccc(C(=O)O)s2)ccc1-c1ccc2[nH]ccc2c1 [Example 82]	≤ 10
CN(C)c1ccc(-c2ccc(-c3ccc(C(=O)O)s3)cc2C#N)cc1 [Example 84]	≤ 10
N#Cc1cc(-c2ccc(C(=O)O)s2)ccc1-c1ccc2c(c1)OCCCO2 [Example 102]	≤ 10
N#Cc1cc(-c2ccc(C(=O)O)s2)ccc1-c1ccc(C2CCCCC2)cc1 [Example 105]	≤ 10
N#Cc1cc(-c2ccc(C(=O)O)s2)ccc1-c1ccc(N2CCOCC2)cc1 [Example 107]	≤ 10
Cc1nc(-c2ccc(-c3ccccc3)c(C#N)c2)sc1C(=O)O [Example 123, 2-(2-cyanobiphenyl-4-yl)-4-methyl-1,3-thiazole-5-carboxylic acid]	≤ 10
Cc1ccc(-c2ccc(-c3nc(C)c(C(=O)O)s3)cc2C#N)cc1 [Example 124, 2-(2-cyano-4′-methylbiphenyl-4-yl)-4-methyl-1,3-thiazole-5-carboxylic acid]	≤ 10
CCc1ccc(-c2ccc(-c3nc(C)c(C(=O)O)s3)cc2C#N)cc1 [Example 125]	≤ 10
Cc1nc(-c2ccc(-c3ccc(OC(F)(F)F)cc3)c(C#N)c2)sc1C(=O)O [Example 126, 2-[2-cyano-4′-(trifluoromethoxy)biphenyl-4-yl]-4-methyl-1,3-thiazole-5-carboxylic acid]	≤ 10
COc1ccc(-c2ccc(-c3nc(C)c(C(=O)O)s3)cc2C#N)cc1 [Example 127, 2-(2-cyano-4′-methoxybiphenyl-4-yl)-4-methyl-1,3-thiazole-5-carboxylic acid]	≤ 10
COc1cccc(-c2ccc(-c3nc(C)c(C(=O)O)s3)cc2C#N)c1 [Example 128, 2-(2-cyano-3′-methoxybiphenyl-4-yl)-4-methyl-1,3-thiazole-5-carboxylic acid]	≤ 10
N#Cc1cc(-c2ncc(C(=O)O)s2)ccc1-c1ccccc1 [Example 136, 2-(2-cyanobiphenyl-4-yl)-1,3-thiazole-5-carboxylic acid]	≤ 10
N#Cc1cc(-n2cc(C(=O)O)cn2)ccc1-c1ccccc1 [Example 137, 1-(2-cyanobiphenyl-4-yl)-1H-pyrazole-4-carboxylic acid]	≤ 10
Cc1ccc(-c2ccc(-n3cc(C(=O)O)cn3)cc2C#N)cc1 [Example 138, 1-(2-cyano-4′-methylbiphenyl-4-yl)-1H-pyrazole-4-carboxylic acid]	≤ 10
Cn1nc(-c2ccc(-c3ccccc3)c(C#N)c2)cc1C(=O)O [Example 146, 3-(2-cyanobiphenyl-4-yl)-1-methyl-1H-pyrazole-5-carboxylic acid]	≤ 10
N#Cc1cc(-c2cc(C(=O)O)sn2)ccc1-c1ccccc1 [Example 152, 3-(2-cyanobiphenyl-4-yl)isothiazole-5-carboxylic acid]	≤ 10
CC(C)(C)c1ccc(-c2ccc(-c3cc(C(=O)O)sn3)cc2C#N)cc1 [Example 153, 3-(4′-tert-butyl-2-cyanobiphenyl-4-yl)isothiazole-5-carboxylic acid]	≤ 10

system: serum uric acid level; assay: Hypouricemic effect (normal mouse); assay type: in vivo; details: ICR mouse, 2 hours after 1 mg/kg oral administration

SMILES	uric acid depression percentage (percentage of hypouricemic effect) [%]
N#Cc1cc(-c2cc(C(=O)[O-])ccn2)ccc1-c1ccccc1.[Na+] [Example 1, sodium 2-(2-cyanobiphenyl-4-yl)isonicotinate]	≥ 70
COc1ccc(-c2ccc(-c3cc(C(=O)O)ccn3)cc2C#N)cc1 [Example 12, 2-(2-cyano-4′-methoxybiphenyl-4-yl)isonicotinic acid]	≥ 70

same assay, conditions: ICR mouse, oral, 24 hours after the administration

SMILES	uric acid lowering percentage (percentage of hypouricemic effect) [%]
COc1ccc(-c2ccc(-c3cc(C(=O)O)ccn3)cc2C#N)cc1 [Example 12, 2-(2-cyano-4′-methoxybiphenyl-4-yl)isonicotinic acid]	≥ 50
N#Cc1cc(-c2cc(C(=O)O)ccn2)ccc1-c1ccc(Cl)cc1 [Example 13, 2-(4′-chloro-2-cyanobiphenyl-4-yl)isonicotinic acid]	≥ 50
